For the assay, the target named is T1, Major Vault Protein A (endogenous, in vault particles) (D. discoideum (endogenous in Ax2-214 derived cells)) (UniProt P34118).
T1 sequence: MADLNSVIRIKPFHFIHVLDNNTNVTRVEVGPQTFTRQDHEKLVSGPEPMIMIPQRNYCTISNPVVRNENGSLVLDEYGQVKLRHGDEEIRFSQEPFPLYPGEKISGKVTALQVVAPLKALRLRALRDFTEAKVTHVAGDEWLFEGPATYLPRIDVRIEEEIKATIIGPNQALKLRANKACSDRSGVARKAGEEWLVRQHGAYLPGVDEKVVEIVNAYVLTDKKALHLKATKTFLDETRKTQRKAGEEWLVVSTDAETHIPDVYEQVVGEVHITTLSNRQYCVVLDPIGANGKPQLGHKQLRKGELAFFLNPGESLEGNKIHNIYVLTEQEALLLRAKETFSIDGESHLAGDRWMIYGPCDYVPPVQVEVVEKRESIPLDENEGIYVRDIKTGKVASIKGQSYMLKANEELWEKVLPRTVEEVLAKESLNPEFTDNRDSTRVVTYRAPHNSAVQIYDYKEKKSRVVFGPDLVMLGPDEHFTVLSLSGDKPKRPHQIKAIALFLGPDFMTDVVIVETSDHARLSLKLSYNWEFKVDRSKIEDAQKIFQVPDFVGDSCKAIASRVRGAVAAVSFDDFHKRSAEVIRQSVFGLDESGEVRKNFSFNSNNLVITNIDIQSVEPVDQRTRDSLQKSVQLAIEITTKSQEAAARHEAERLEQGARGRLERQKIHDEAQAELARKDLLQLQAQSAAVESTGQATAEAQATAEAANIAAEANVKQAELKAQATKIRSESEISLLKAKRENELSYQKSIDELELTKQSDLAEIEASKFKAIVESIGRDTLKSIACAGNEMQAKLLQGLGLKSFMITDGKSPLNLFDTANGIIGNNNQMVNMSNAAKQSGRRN
Kind of assay: SEC + co-sedimentation; subcellular fractionation in combination with size exclusion chromatography of D. discoideum cells expressing MVPA-TurboID; details in Supplementary Fig. 2 and Supplementary Methods. (Size exclusion chromatography separates by hydrodynamic size, large species first.)

Results are given in words; binding and its absence hold for the method and conditions named. Binding seen in cells or lysates may run through a third protein. Some results given as binding are weak or reduced against the parent protein; the word gives no strength. Sequences can lack the tags named with a protein.

B1: MVPA-TurboID fusion protein (D. discoideum Major Vault Protein A fused to the TurboID biotin ligase) (protein, UniProt P34118 1-843)
chain: MADLNSVIRIKPFHFIHVLDNNTNVTRVEVGPQTFTRQDHEKLVSGPEPMIMIPQRNYCTISNPVVRNENGSLVLDEYGQVKLRHGDEEIRFSQEPFPLYPGEKISGKVTALQVVAPLKALRLRALRDFTEAKVTHVAGDEWLFEGPATYLPRIDVRIEEEIKATIIGPNQALKLRANKACSDRSGVARKAGEEWLVRQHGAYLPGVDEKVVEIVNAYVLTDKKALHLKATKTFLDETRKTQRKAGEEWLVVSTDAETHIPDVYEQVVGEVHITTLSNRQYCVVLDPIGANGKPQLGHKQLRKGELAFFLNPGESLEGNKIHNIYVLTEQEALLLRAKETFSIDGESHLAGDRWMIYGPCDYVPPVQVEVVEKRESIPLDENEGIYVRDIKTGKVASIKGQSYMLKANEELWEKVLPRTVEEVLAKESLNPEFTDNRDSTRVVTYRAPHNSAVQIYDYKEKKSRVVFGPDLVMLGPDEHFTVLSLSGDKPKRPHQIKAIALFLGPDFMTDVVIVETSDHARLSLKLSYNWEFKVDRSKIEDAQKIFQVPDFVGDSCKAIASRVRGAVAAVSFDDFHKRSAEVIRQSVFGLDESGEVRKNFSFNSNNLVITNIDIQSVEPVDQRTRDSLQKSVQLAIEITTKSQEAAARHEAERLEQGARGRLERQKIHDEAQAELARKDLLQLQAQSAAVESTGQATAEAQATAEAANIAAEANVKQAELKAQATKIRSESEISLLKAKRENELSYQKSIDELELTKQSDLAEIEASKFKAIVESIGRDTLKSIACAGNEMQAKLLQGLGLKSFMITDGKSPLNLFDTANGIIGNNNQMVNMSNAAKQSGRRN
With B1, the binding result is recorded as “binds”.

The values are drawn from paper PMC13100048.
